# Measurements taken from publication PMC9834408, “The SPOC domain is a phosphoserine binding module that bridges transcription machinery with co- and post-transcriptional regulators” (Nature Communications, 2023).
# No constants are given. Whether binding was seen depends on the method and setting. In cells and extracts the contact can be indirect. A yes stands for co-enrichment or nearness to the bait. Other partners may have been found. Where a sequence is shown, tags or fusion partners need not be part of it.
# Molecular target: 3×FLAG-NLS-RBM15-SPOC (human) (UniProt Q96T37)
# Test: affinity purification with mass spectrometry; anti-FLAG M2 beads; 3×FLAG-NLS-SPOC domains expressed in HEK293T; lysis in 50 mM Tris-Cl pH 8, 150 mM NaCl, 0.1% Triton with benzonase; empty vector as control; three replicates
binder,measurement,value
"HTATSF1 (TAT-SF1) (protein, UniProt O43719 1-755) MSGTNLDGNDEFDEQLRMQELYGDGKDGDTQTDAGGEPDSLGQQPTDTPYEWDLDKKAWFPKITEDFIATYQANYGFSNDGASSSTANVEDVHARTAEEPPQEKAPEPTDARKKGEKRKAESGWFHVEEDRNTNVYVSGLPPDITVDEFIQLMSKFGIIMRDPQTEEFKVKLYKDNQGNLKGDGLCCYLKRESVELALKLLDEDEIRGYKLHVEVAKFQLKGEYDASKKKKKCKDYKKKLSMQQKQLDWRPERRAGPSRMRHERVVIIKNMFHPMDFEDDPLVLNEIREDLRVECSKFGQIRKLLLFDRHPDGVASVSFRDPEEADYCIQTLDGRWFGGRQITAQAWDGTTDYQVEETSREREERLRGWEAFLNAPEANRGLRRSDSVSASERAGPSRARHFSEHPSTSKMNAQETATGMAFEEPIDEKKFEKTEDGGEFEEGASENNAKESSPEKEAEEGCPEKESEEGCPKRGFEGSCSQKESEEGNPVRGSEEDSPKKESKKKTLKNDCEENGLAKESEDDLNKESEEEVGPTKESEEDDSEKESDEDCSEKQSEDGSEREFEENGLEKDLDEEGSEKELHENVLDKELEENDSENSEFEDDGSEKVLDEEGSEREFDEDSDEKEEEEDTYEKVFDDESDEKEDEEYADEKGLEAADKKAEEGDADEKLFEESDDKEDEDADGKEVEDADEKLFEDDDSNEKLFDEEEDSSEKLFDDSDERGTLGGFGSVEEGPLSTGSSFILSSDDDDDDI",binding,binds
